{"source": "PubChem BioAssay AID504834", "about": "(National Center for Advancing Translational Sciences (NCATS), 2011)", "note": "Out of some 320,000 compounds screened, about 22,000 (6.9%) were called active. Inconclusive results, whose numbers are uncertain, are shown with a selection of clear calls. Calls follow the shape of the dose curve; as a rule, active = well fitted inhibition curve with a large enough effect; inconclusive = small, poorly fitted or top-dose-only effect, or another doubt; inactive = no such curve, though single readings can be large or run the other way. A potency beside an inconclusive call is a rough fit, not a confirmed value. % is scaled to controls: 0 for no effect and ±100 for the full control effect; potency is read from the fitted curve at half-maximal effect."}
{"test": "Primary qHTS for delayed death inhibitors of the malarial parasite plastid, 96 hour incubation", "details": "P. falciparum luciferase reporter growth; series mostly up to 28.7 µM; activity change, negative = inhibition: at the top concentration", "procedure,_shortened": "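Infected RBCs, 2% Hct / 0.05% parasitemia final; luciferase-reporter P. falciparum; cpd 96 h, 37 C, 5% CO2; luciferase detection reagent; luminescence.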"}
{"smiles": "Cc1cc(C)c2oc(-c3ccc(C)c(NC(=S)NC(=O)c4cccs4)c3)nc2c1", "Potency": "inconclusive: 0.233 µM [inhibitor, partial curve, poor fit]"}
{"smiles": "O=C(Nc1ccccc1C(=O)OCC(=O)c1c[nH]c2ccccc12)c1ccco1", "Potency": "inconclusive: 7.38 µM [inhibitor, partial curve]"}
{"smiles": "CC1(C)Cc2nc3oc4c(NCCCN5CCOCC5)ncnc4c3cc2CO1", "Potency": "inconclusive: 18.5 µM [inhibitor, single point]"}
{"smiles": "Cc1onc(-c2ccccc2)c1C(=O)Nc1nc2c(s1)C(=O)CC(C)(C)C2", "Potency": "inconclusive: 3.29 µM [inhibitor, single point]"}
{"smiles": "Cc1ccccc1OCC(=O)O/N=C(\\N)Cc1ccc(Cl)cc1", "activity change, negative = inhibition": "inactive: -13.6%"}
{"smiles": "COC(=O)/C=C(\\C)N=Nc1c(O)[nH]c2ccccc12", "Potency": "inconclusive: 2.94 µM [inhibitor, full curve, poor fit]"}
{"smiles": "CCn1c(-c2cc(-c3ccccc3OC)nc3ccccc23)n[nH]c1=S", "Potency": "active: 3.29 µM"}
{"smiles": "CCCCC1=CC2=CC(=O)C(C)(OC(=O)CC)C(=O)C2=CN1CC(C)C", "note": "(stereo not drawn)", "Potency": "inconclusive: 18.5 µM [inhibitor, single point]"}
{"smiles": "CCN(c1ccccc1)S(=O)(=O)c1nnc(NC(=O)c2ccco2)s1", "activity change, negative = inhibition": "inactive: 20.9%"}
{"smiles": "COc1cccc(/C=C2\\SC(=S)N(CCCC(=O)N3CCCCC3)C2=O)c1", "Potency": "inconclusive: 14.7 µM [inhibitor, partial curve, poor fit]"}
{"smiles": "OCCC1CN(Cc2cc3ccccc3o2)CCN1Cc1ccc(F)cc1", "note": "(stereo not drawn)", "Potency": "inconclusive: 18.5 µM [inhibitor, single point]"}
{"smiles": "Cc1cc(C)cc(NC(=O)C2CC3CCC2C3)c1", "note": "(stereo not drawn)", "Potency": "inconclusive: 5.86 µM [inhibitor, partial curve, poor fit]"}
{"smiles": "COc1cccc(C(=O)c2cc3ccc(O)cc3oc2=O)c1", "Potency": "inconclusive: 4.15 µM [inhibitor, partial curve, poor fit]"}
{"smiles": "CCOC(=O)C1=C(CC)Nc2ccccc2N=C1NC(=O)c1cc(C)on1", "activity change, negative = inhibition": "inactive: 31.9%"}
{"smiles": "O=C(c1ccc(OC2CCN(C/C=C/c3ccccc3)CC2)cc1)N1CCCC1", "Potency": "active: 10.4 µM"}
{"smiles": "COc1ccc2sc(-c3ccc(SC)cc3)c(C#CC(C)(C)O)c2c1", "Potency": "inconclusive: 3.29 µM [inhibitor, single point]"}
{"smiles": "Cc1cc(NC(=O)Cc2ccccc2)c2ccccc2n1", "Potency": "inconclusive: 18.5 µM [inhibitor, partial curve, poor fit]"}
{"smiles": "FC(F)(F)c1cc(-c2cccs2)nc2cc(-c3cccs3)nn12", "Potency": "inconclusive: 18.5 µM [inhibitor, single point]"}
